Test results reported in PubChem BioAssay AID504444 (National Center for Advancing Translational Sciences (NCATS), 2011).
The campaign covered roughly 360,000 compounds. About 7,500 (2.1%) were called active. The shares of active, inactive and inconclusive entries below differ from those in the screen. Calls come from the whole dose curve; as a rule, active = well fitted inhibition curve with a large enough effect; inconclusive = small, poorly fitted or top-dose-only effect, or effect the other way; inactive = flat fitted curve, though single readings scatter. Where the call is inconclusive, the potency comes from a doubtful curve fit.

Test: Nrf2 qHTS screen for inhibitors; note: nearly all actives have a fitted effect of over 60% in size
Conditions: A549 ARE-Fluc reporter, luciferase luminescence, 18-24 h; series mostly up to 46 µM
In short: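 Nrf2 activity is the BugLite luminescence, read 15 min after reagent at room temperature, following CellTiter-Fluor cytotoxicity readout (30 min, 37C). Compound titrations were applied for 18-24 h to 5000 A549 ARE_Fluc cells/well in 5% FBS OPTI-MEM.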
Potency is the fitted concentration of half-maximal effect.

Q: With `O=C(Cc1ccccc1)Nc1ncnc2c1C(c1ccccc1)c1c(ccc3ccccc13)O2` (centres undefined) as the compound, how does the Potency read?
A: active: 5.17 µM

Q: For `C=C(C)CSc1nc2sc3c(c2c(=O)n1-c1ccccc1)CC(C(C)C)OC3` (centres undefined), which Potency is on record?
A: inactive

Q: With `Cc1cccc(-c2noc(CCCC(=O)Nc3cccnc3)n2)c1` as the compound, how does the Potency read?
A: inconclusive: 14.6 µM [falling, partial curve, poor fit]

Q: With `CC(C)CN(C(=O)CCCOc1ccc(Cl)cc1Cl)c1c(N)n(Cc2ccccc2)c(=O)[nH]c1=O` as the compound, how does the Potency read?
A: inconclusive: 29.1 µM [falling, single point]

Q: With `O=C(COC(=O)c1cccc(S(=O)(=O)N2CCOCC2)c1)NCc1ccccc1` as the compound, how does the Potency read?
A: inconclusive: 29.1 µM [activator, single point]

Q: Which Potency does the source give for `CCC1CN(C(=O)N2CCC(C(=O)NCc3cccc(C)c3)CC2)c2ccccc2O1` (centres undefined) here?
A: inactive

Q: With `O=C1c2ccccc2S(=O)(=O)N1Cc1c(F)cccc1Cl` as the compound, how does the Potency read?
A: inconclusive: 23.1 µM [activator, partial curve]

Q: With `COc1ccccc1N1CCN(C(=O)c2ccc(CN3CCc4ccccc4C3)cc2)CC1` as the compound, how does the Potency read?
A: inconclusive: 29.1 µM [falling, single point]

Q: With `CCOC(=O)c1cnc(SCC(=O)N2CCOCC2)nc1N` as the compound, how does the Potency read?
A: inconclusive: 29.1 µM [activator, single point]

Q: Which Potency does the source give for `N=c1n(CCN2CCCCC2)c2ccccc2n1CC(=O)c1ccc(Cl)c(Cl)c1` here?
A: inactive

Q: Which Potency does the source give for `Cc1ccc(/C=C/C(=O)Nc2cc(S(N)(=O)=O)ccc2O)cc1` here?
A: inactive

Q: For `O=c1c2ccccc2nc2sc3ccccc3n12`, which Potency is on record?
A: inconclusive: 2.31 µM [activator, full curve]

Q: Which Potency does the source give for `CCn1c2ccccc2c2cc(N=C3SC(CC(=O)Nc4ccccc4OC)C(=O)N3CCOC)ccc21` (centres undefined) here?
A: inconclusive: 5.8 µM [falling, partial curve, poor fit]

Q: With `COc1ccc(C2(CNC(=O)/C=C\c3ccco3)CCCC2)cc1OC` as the compound, how does the Potency read?
A: inactive

Q: Which Potency does the source give for `Nc1cc(S(=O)(=O)Nc2cc(Cl)ccc2Cl)ccc1N1CCOCC1` here?
A: inconclusive: 25.9 µM [falling, single point]

Q: For `COc1cccc(/C=C/C(=O)OCC(=O)Nc2ccc(Cl)c(S(=O)(=O)N(C)C)c2)c1`, which Potency is on record?
A: inactive

Q: Which Potency does the source give for `CC(=O)NC(C)c1cc(Cl)c2cccnc2c1O` (centres undefined) here?
A: inactive

Q: Which Potency does the source give for `O=C(NCc1ccc(F)cc1)c1ccc2nc(N3CCCCC3)sc2c1` here?
A: inconclusive: 5.8 µM [activator, partial curve]

Q: With `COc1c(Cl)cccc1NC(=O)c1c(NC(=O)Cc2ccccc2)sc2c1CCCC2` as the compound, how does the Potency read?
A: inactive

Q: With `Cc1[nH]c2ccccc2c1SCC(=O)N1CCC(C)CC1` as the compound, how does the Potency read?
A: inconclusive: 13 µM [falling, partial curve, poor fit]

Q: Which Potency does the source give for `COc1ccc(-n2c(C)cc(C(=O)COC(=O)Cn3cnc4ccccc43)c2C)cc1` here?
A: inconclusive: 35.5 µM [falling, single point]

Q: With `Cc1cccc(-n2ncc3c(N4CCC(C)CC4)ncnc32)c1` as the compound, how does the Potency read?
A: inconclusive: 1.03 µM [activator, partial curve]

Q: With `CCOc1ccc(NC(=O)c2ccc3c(c2)CCN3S(=O)(=O)c2ccc(Cl)cc2)cc1` as the compound, how does the Potency read?
A: inconclusive: 5.17 µM [falling, full curve]

Q: Which Potency does the source give for `CCOc1ccc(CCNC(=O)c2ccc(Cl)c(S(=O)(=O)N3CCOCC3)c2)cc1OCC` here?
A: inconclusive: 25.9 µM [falling, single point]

Q: With `CC(C)Oc1ccc(S(=O)(=O)N2CCOCC2)cc1NC(=O)C1COc2ccccc2O1` (centres undefined) as the compound, how does the Potency read?
A: inconclusive: 25.9 µM [falling, partial curve, poor fit]

Q: With `CCOc1ccc(C(=O)Nc2cccc(C)n2)cc1` as the compound, how does the Potency read?
A: inconclusive: 1.46 µM [activator, partial curve]

Q: For `Cc1cccc2sc(NNC(=O)c3ccc(S(=O)(=O)N4CCCC(C)C4)cc3)nc12` (centres undefined), which Potency is on record?
A: inconclusive: 4.61 µM [falling, full curve, poor fit]

Q: For `Cc1nc2ccccn2c1C(=O)N=Nc1c(O)[nH]c2ccccc12`, which Potency is on record?
A: inconclusive: 5.8 µM [activator, full curve]

Q: For `COc1ccc(OC)c(CNC(=O)c2nn(C)c3c2CSc2ccccc2-3)c1`, which Potency is on record?
A: inconclusive: 0.0052 µM [activator, full curve, poor fit]

Q: With `COc1cccc(C(=O)NC(c2ccccc2)C2CCCC2)c1` (centres undefined) as the compound, how does the Potency read?
A: inconclusive: 7.31 µM [activator, partial curve, poor fit]

Q: For `CC1(C)Cc2c(sc(NC(=O)c3ccccc3)c2C(=O)O)CO1`, which Potency is on record?
A: inconclusive: 20.6 µM [falling, single point]

Q: Which Potency does the source give for `Cc1cc(C)cc(NC(=S)N2CCC(C(=O)c3ccc(F)cc3)CC2)c1` here?
A: inactive

Q: Which Potency does the source give for `Fc1cccc(Cl)c1Cn1c(-c2cccs2)nc2ccccc21` here?
A: inconclusive: 29.1 µM [falling, single point]

Q: With `O=C(CNCCc1ccccc1)N1CCc2ccccc2C1` as the compound, how does the Potency read?
A: inconclusive: 29.1 µM [activator, single point]

Q: Which Potency does the source give for `COc1ccc(C(=O)Nc2nc3c(s2)CCCC3)cc1Cl` here?
A: inconclusive: 1.64 µM [activator, partial curve]

Q: With `Cc1cccc(C(=O)N2CCCCCC2)c1` as the compound, how does the Potency read?
A: inconclusive: 0.0517 µM [falling, full curve, poor fit]

Q: With `O=C(CN(C1CCCCC1)S(=O)(=O)c1ccccc1)NCC1CCCO1` (centres undefined) as the compound, how does the Potency read?
A: inactive

Q: Which Potency does the source give for `CC(=O)C1=C(C)NC(SCC(=O)Nc2nccs2)=C(C#N)C1c1ccccc1Cl` (centres undefined) here?
A: inconclusive: 20.6 µM [falling, partial curve]

Q: For `CC1(C)N=C(N)N=C(N)N1CCCCc1ccccc1`, which Potency is on record?
A: active: 0.82 µM

Q: For `N#C/C(=C/c1cccc(C(F)(F)F)c1)c1nc(CCN2C(=O)c3ccccc3C2=O)cs1`, which Potency is on record?
A: inactive

Q: With `CCc1cc(=O)oc2cc(C)cc(OCC(=O)N3CCC(C(=O)NC(C)C)(c4ccccc4)CC3)c12` as the compound, how does the Potency read?
A: inconclusive: 29.1 µM [falling, single point]

Q: Which Potency does the source give for `c1nnnn1C12CC3CC(CC(C3)C1)C2` here?
A: inconclusive: 29.1 µM [activator, single point]

Q: For `CN(Cc1ccccc1)CC(O)COc1ccc(CNCc2ccc(Cl)s2)cc1` (centres undefined), which Potency is on record?
A: inconclusive: 18.4 µM [activator, single point]

Q: For `CCNc1nc(Cl)nc(N(NC(C)=O)C(C)CC)n1` (centres undefined), which Potency is on record?
A: inconclusive: 20.6 µM [activator, single point]
